In PubChem BioAssay AID504834 (National Center for Advancing Translational Sciences (NCATS), 2011):
The whole screen tested about 320,000 compounds, of which about 22,000 (6.9%) were called active. Inconclusive results, whose numbers are uncertain, are shown with a selection of clear calls. Calls come from the whole dose curve; as a rule, active = well fitted inhibition curve with a large enough effect; inconclusive = small, poorly fitted or top-dose-only effect, or another doubt; inactive = no such curve, though single readings can be large or run the other way. Potencies beside an inconclusive call are fits to weak or partial responses and may not hold up.

experiment: Primary qHTS for delayed death inhibitors of the malarial parasite plastid, 96 hour incubation; conditions: P. falciparum luciferase reporter growth; series mostly up to 28.7 µM
Procedure, shortened: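 96 h incubation, 37 C, 5% CO2, of luciferase-reporter P. falciparum-infected RBCs (2% hematocrit, 0.05% parasitemia final) with test compounds; endpoint luminescence.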
Potency is the fitted concentration of half-maximal effect.

| SMILES | Potency |
| --- | --- |
| O=C(CSc1nnc(-c2ccc(Br)cc2)o1)Nc1cccc(C(=O)O)c1 | inconclusive: 10.4 µM [inhibitor, partial curve] |
| Cc1ccccc1C(=O)Nc1nnc(S(=O)(=O)N(C)Cc2ccco2)s1 | inconclusive: 14.7 µM [inhibitor, single point] |
| O=C(NC1CCCC1)c1cc(-c2ccc(Cl)cc2)on1 | inactive |
| CC1(C)Oc2ccc3ccc(=O)oc3c2-c2cnoc21 | inconclusive: 11.7 µM [inhibitor, single point] |
| Cc1ccc(NC(=O)NC2CCCCCCC2)cc1C | inconclusive: 14.7 µM [inhibitor, partial curve, poor fit] |
| CCn1cnc2c(Nc3cccc(Cl)c3)nc(C#N)nc21 | inconclusive: 3.7 µM [inhibitor, full curve] |
| C=CCN(C(=O)C1CSC2(C)CCC(=O)N12)c1nc(-c2ccccc2)cs1 (centres undefined) | inconclusive: 18.5 µM [inhibitor, single point] |
| COc1ccc(CCNC(=O)c2cc(S(=O)(=O)N3CCCCCC3)ccc2OC)cc1OC | active: 13.1 µM |
| COCCNc1oc(-c2cccs2)nc1S(=O)(=O)c1ccc(C)cc1 | inconclusive: 5.22 µM [inhibitor, partial curve] |
| Cc1noc(C)c1CSCC(=O)OCc1nc2ccccc2c(=O)n1CC#N | inconclusive: 0.185 µM [inhibitor, full curve, poor fit] |
| COc1ccc(CN2CCC(n3nccc3NC(=O)c3ccc4c(c3)OCO4)CC2)cc1C | inactive |
| O=C(c1ccc(S(=O)(=O)N2CCCC2)cc1)N1CCN(S(=O)(=O)c2cccc(F)c2)CC1 | inconclusive: 0.37 µM [inhibitor, partial curve, poor fit] |
| CCCCC1CCC(C(=O)N(CC(C)C)c2c(N)n(CCCC)c(=O)[nH]c2=O)CC1 (centres undefined) | inconclusive: 10.4 µM [inhibitor, single point] |
| CC(NC(=O)CCSc1nc(-c2ccc3c(c2)OCO3)cc(C(F)(F)F)n1)c1ccccc1 (centres undefined) | inconclusive: 1.47 µM [inhibitor, partial curve] |
| c1ccc(-n2cnc3cc(NCc4ccccn4)ccc32)cc1 | inconclusive: 2.62 µM [inhibitor, single point] |
| O=C(COC(=O)c1ccc(O)cc1O)N=c1sccn1Cc1ccccc1Cl | inconclusive: 6.57 µM [inhibitor, partial curve] |
| O=C(N/N=C/c1cn(-c2cccs2)nc1-c1ccccc1)c1ccccc1Br | inconclusive: 18.5 µM [inhibitor, single point] |
| COc1ccccc1-n1c(/C=C/c2ccc(O)cc2)nc2ccccc2c1=O | inactive |
| COc1ccc2cc(C(=O)N3CCN(Cc4ccc5c(c4)OCO5)CC3)[nH]c2c1 | active: 13.1 µM |
| C[n+]1c(/C=C/c2ccc3c(c2)OCO3)ccc2ccccc21 | inactive |
| CCOC(=O)N1CCN(CC(O)COc2ccccc2C(C)C)CC1 (centres undefined) | inconclusive: 20.8 µM [inhibitor, partial curve, poor fit] |
| COc1cccc(CN2CCCC(CNC(=O)c3ccc(F)cc3)C2)c1OC (centres undefined) | inactive |
| CO/N=C(\C(=O)N[C@@H]1C(=O)N2C(C(=O)[O-])=C(C[n+]3cccc4c3CCC4)CS[C@H]12)c1csc(N)n1 | inactive |

| SMILES | Potency |
| --- | --- |
| C=CCCCCCCCCC(=O)Nc1ncccn1 | inactive |
| Cc1c(OC(C)C(=O)NCCCN2CCOCC2)ccc2c3c(c(=O)oc12)CCCC3 (centres undefined) | inconclusive: 9.28 µM [inhibitor, single point] |
| COc1ccccc1C(=O)Nn1c(-c2cccs2)nc2ccccc2c1=O | inconclusive: 11.7 µM [inhibitor, single point] |
| CN1CCc2c(c3c(n2C)CCN(C)[C@H]3c2ccccc2F)[C@@H]1c1ccccc1F | inconclusive: 0.928 µM [inhibitor, partial curve, poor fit] |
| CCOc1nc(C)ccc1-c1noc(C)n1 | inconclusive: 9.28 µM [inhibitor, partial curve, poor fit] |
| Cc1ccc(NC(=O)CSCC(=O)Nc2cc(C(F)(F)F)ccc2N2CCOCC2)cc1 | inconclusive: 5.22 µM [inhibitor, partial curve] |
| Cc1ccc(N)cc1N | inconclusive: 16.5 µM [inhibitor, single point] |
| O=C(CNC(=O)c1ccc(F)cc1)N/N=C/c1cc(Br)ccc1OCc1ccccc1 | inconclusive: 14.7 µM [inhibitor, partial curve, poor fit] |
| O=C(CSc1nc2ccccc2o1)Nc1ccccc1N1CCCCCC1 | inactive |
| O=C(/C=C/c1ccccc1Cl)Nc1ccc2c(c1)C(=O)NC2=O | inactive |
| O=C(COc1ccc(NC(=O)c2ccccc2)cc1)c1ccccc1 | inactive |
| COc1ccc(-c2cc(-c3cc(C)ccc3O)[nH]n2)cc1 | inconclusive: 9.28 µM [inhibitor, partial curve] |
| Cc1cc(C)n(-c2ccc(C(=O)OCC(=O)Nc3cc(Cl)ccc3[N+](=O)[O-])cc2)n1 | inactive |
| O=[N+]([O-])c1cc([N+](=O)[O-])c(Oc2cccnc2Br)cc1NN1CCCCC1 | inconclusive: 9.28 µM [inhibitor, partial curve, poor fit] |
| COCCC(=O)N1CCC(Oc2ccc(C(=O)N3CCC(N(C)C)C3)cc2)CC1 (centres undefined) | inconclusive: 14.7 µM [inhibitor, single point] |
| COc1ccc(N)c2c1C(=O)c1ccccc1C2=O | inconclusive: 18.5 µM [inhibitor, single point] |
| O=C(NNc1nc2ccc(Cl)cc2s1)c1cc(-c2cccs2)nc2ccccc12 | active: 7.38 µM |
| CCc1cccc(NC(=O)CCNS(=O)(=O)c2cc(Br)cnc2N)c1 | inactive |
| O=C(CC1C(=O)NCCN1Cc1cccc(F)c1)NCCCOc1cccnc1 (centres undefined) | inconclusive: 11.7 µM [inhibitor, single point] |
| NCCCC[C@H](NC(=O)C1CCNCC1)c1nnc(CN)o1 | inactive |
| CCCC(=O)Nc1ccc(NC(=O)c2cccc(OC)c2)nc1 | inconclusive: 9.28 µM [inhibitor, single point] |
| O=C(N/N=C/c1ccc(O)cc1)c1ccc(NC(=O)c2ccccc2Br)cc1 | inconclusive: 2.94 µM [inhibitor, single point] |
| COC(=O)c1ccc(CN2CCCC(CO)(Cc3ccccc3F)C2)cc1 (centres undefined) | inconclusive: 14.7 µM [inhibitor, partial curve] |

| SMILES | Potency |
| --- | --- |
| CCOC(=O)C1=C(CSc2nc(-c3ccncc3)ccc2C#N)OC(N)=C(C#N)C1c1ccc(OC)cc1 (centres undefined) | inconclusive: 10.4 µM [inhibitor, single point] |
| O=C(Nc1nc(-c2ccccc2)cs1)c1ccccc1NS(=O)(=O)c1ccc(F)cc1 | active: 3.7 µM |
| Cc1oc2c(CN(C)C)c(O)ccc2c(=O)c1-c1cscn1 | inconclusive: 18.5 µM [inhibitor, single point] |
| COC(C(=O)Nc1ccccc1C(=O)N1CCOCC1)c1ccccc1 (centres undefined) | inactive |
| CC1CCN(CCNC(=O)C2CCCN(S(=O)(=O)c3cccc4nonc34)C2)CC1 (centres undefined) | inconclusive: 0.0738 µM [inhibitor, full curve, poor fit] |
| COc1cc(/C=N/N=C2/NC(=O)C(Cc3ccccc3)S2)ccc1O (centres undefined) | inconclusive: 2.62 µM [inhibitor, partial curve, poor fit] |
| O=C(Nc1nnc(SCC(=O)N2CCCCC2)s1)c1ccccc1F | inactive |
| Cc1cc(C)nc(NCCCc2ccccc2)n1 | active: 13.1 µM |
| Cc1cccc(NC(=O)c2ccc(C(=O)c3ccccc3)o2)c1 | inconclusive: 2.94 µM [inhibitor, full curve, poor fit] |
| CC1CCN(C(=O)c2cccc(S(=O)(=O)N3CCN(c4ccccc4)CC3)c2)CC1 | inactive |
| CCOC(=O)NN1C(=O)c2ccccc2NC12CCCC2 | inconclusive: 18.5 µM [inhibitor, single point] |
| O=C(Nc1ccc(S(=O)(=O)N2CCCCC2)cc1)c1ccccc1F | inconclusive: 9.28 µM [inhibitor, partial curve, poor fit] |
| CN(C(=O)c1ccc(OC2CCN(CCc3ccccc3)CC2)cc1)C1CCOC1 (centres undefined) | inconclusive: 4.15 µM [inhibitor, partial curve, poor fit] |
| CCCCN(CCCC)S(=O)(=O)c1ccc(C(=O)Nc2nnc(COC)o2)cc1 | inactive |
| CC1CC(C)CN(S(=O)(=O)c2ccc(C(=O)NCc3ccco3)cc2)C1 (centres undefined) | active: 8.28 µM |
| Cc1cc2ncn(CCCCOc3ccccc3)c2cc1C | active: 14.7 µM |
| C/C(=N\Nc1ccc(C(=O)O)cc1)c1ccc2c(c1)Nc1ccccc1S2 | inconclusive: 11.7 µM [inhibitor, single point] |
| COc1ccc(CC(C)N2CCN(Cc3ccccc3)CC2)cc1OC (centres undefined) | inconclusive: 14.7 µM [inhibitor, single point] |
| COc1cccc(CSc2nnc(C(F)(F)F)n2Cc2ccc(F)cc2)c1 | inconclusive: 0.037 µM [inhibitor, full curve, poor fit] |
| O=C(N/C(=C/c1cccc([N+](=O)[O-])c1)C(=O)N1CCOCC1)c1ccccc1Br | inconclusive: 18.5 µM [inhibitor, single point] |
| CC(C)Oc1ccc(C2CNC(=O)C2)cc1 (centres undefined) | inconclusive: 18.5 µM [inhibitor, single point] |
| CCN(CC)S(=O)(=O)c1ccc2oc(C(=O)NCC3COc4ccccc4O3)c(C)c2c1 (centres undefined) | inconclusive: 14.7 µM [inhibitor, partial curve, poor fit] |
| CCOc1ccc(NN=C(C(=O)OC)C(=O)OC)c([N+](=O)[O-])c1 | inconclusive: 18.5 µM [inhibitor, single point] |
